Measurements from patent US12551437B2, “Liposome compositions comprising weak acid drugs and uses thereof” (Pharmosa Biopharm Inc., priority 2017, dated 2026).
At least one structure is not confirmed: it was looked up by name or label, or the drawing left a doubt.

Assay: Drug loading and encapsulation efficiency of liposome suspensions (G-25 column separation, HPLC)
Type: physicochemical
Settings: liposomal formulation (4-1) HSPC:cholesterol:DSPE-mPEG2000 3:2:0.075, internal bicarbonate salt 400 mM, drug loading at 40° C.

For `Cc1cnc(NC(=O)C2=C(O)c3ccccc3S(=O)(=O)N2C)s1` [Meloxicam], the E.E. was 92.8%, the “Internal [drug]” value was 85.78 mM and the “Measured [drug]” value was 1019.9 µg/mL.
